The values below come from patent publication US20250019427A1.

By UniProt entry, the sequences of proteins in these tests, tags left out. Where a name states a change or a piece, a line headed by the entry shows the natural chain unless it says otherwise. Residues count along the entry.
UniProt Q9Z0J7, residues 189-303: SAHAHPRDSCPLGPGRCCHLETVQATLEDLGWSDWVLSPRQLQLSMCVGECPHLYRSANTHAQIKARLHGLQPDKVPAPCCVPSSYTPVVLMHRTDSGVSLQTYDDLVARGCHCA
UniProt G7PWZ3: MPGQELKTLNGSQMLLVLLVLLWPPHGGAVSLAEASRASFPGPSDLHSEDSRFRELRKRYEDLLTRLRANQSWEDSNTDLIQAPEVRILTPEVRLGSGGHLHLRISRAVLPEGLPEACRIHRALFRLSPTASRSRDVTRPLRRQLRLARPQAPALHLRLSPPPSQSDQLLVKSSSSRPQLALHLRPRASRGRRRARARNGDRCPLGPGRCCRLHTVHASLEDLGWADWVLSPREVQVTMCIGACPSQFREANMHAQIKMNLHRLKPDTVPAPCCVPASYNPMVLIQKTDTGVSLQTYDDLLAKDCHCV
UniProt P39905, residues 78-211: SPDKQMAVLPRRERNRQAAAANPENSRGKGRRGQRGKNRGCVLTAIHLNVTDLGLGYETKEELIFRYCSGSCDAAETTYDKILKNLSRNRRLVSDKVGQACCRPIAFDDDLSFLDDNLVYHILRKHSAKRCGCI

These are yes or no findings as the source states them, for the method shown. Some results given as binding are weak or reduced against the parent protein; the word gives no strength.

Experiment [1] addresses Mouse GDF15 Fc (mouse) (UniProt Q9Z0J7). Put plainly: Octet BLI (Tables 5A, 5B). (BLI is a label-free optical method that tracks binding on a fibre tip over time.)
For a further experiment, the target named is Cyno GDF15 Fc (cyno) (UniProt G7PWZ3). Put plainly: Octet BLI (Tables 5A, 5B).
For experiment [2], the target named is Mouse GDF15 Fc (mouse) (UniProt Q9Z0J7). Put plainly: Octet BLI, Fab monovalent; P.F. = binder with poor fit.
The target in the next experiment is GDNF (UniProt P39905). Description: Octet BLI, IgG on tip, avid; P.F. = binder with poor fit.

B1: Clone J Fab (Fab, V domains shown)
VH: QVQLVQSGAEVKKPGASVKVSCKASGYTFTSYGINWVRQAPGQGLEWMGWIDAYSGSTNYAQKLQGRVTMTTDTSTSTAYMELRSLRSDDTAVYYCARGPGQYADVDVWGQGTMVTVSS
VL: DIQMTQSPSSVSASVGDRVTITCRASQGISSWLAWYQQKPGKAPKLLIYAASSLQSGVPSRFSGSGSGTDFTLTISSLQPEDFATYYCQQANSFPITFGGGTKVEIK
For the molecule B1, the binding result with Mouse GDF15 Fc (mouse) [1], with Cyno GDF15 Fc (cyno) and with Mouse GDF15 Fc (mouse) [2] was “binds” throughout.

B2: Clone I Fab (Fab, V domains shown)
VH: QVQLVQSGAEVKKPGASVKVSCKASGYTFTDEGINWVRQAPGQGLEWMGWITAYSGDTVYAQKLQGRVTMTTDTSTSTAYMELRSLRSDDTAVYYCARGPGQYADVDVWGQGTMVTVSS
VL: DIQMTQSPSSVSASVGDRVTITCRASQGISSWLAWYQQKPGKAPKLLIYAASSLQSGVPSRFSGSGSGTDFTLTISSLQPEDFATYYCQQANSFPITFGGGTKVEIK
As for B2, the binding entry with Mouse GDF15 Fc (mouse) [1] and with Cyno GDF15 Fc (cyno) was “binds” throughout.

B3: Clone L Fab (Fab, V domains shown)
VH: QVQLVQSGAEVKKPGASVKVSCKASGYTFASYDIIWVRQAPGQGLEWMGWISALSGDTVYAQKLQGRVTMTTDTSTSTAYMELRSLRSDDTAVYYCARTRHDTSGIRFDYWGQGTLVTVSS
VL: DIQMTQSPSSVSASVGDRVTITCRASQGIDSWLAWYQQKPGKAPKLLIYAASSLQSGVPSRFSGSGSGTDFTLTISSLQPEDFATYYCQQVHSFPITFGGGTKVEIK
B3: the binding entry with Mouse GDF15 Fc (mouse) [1] and with Cyno GDF15 Fc (cyno) was “binds” each time.

B4: Clone P Fab (Fab, V domains shown)
VH: QVQLVQSGAEVKKPGATVKVSCKASGYTFDSYGIHWVRQAPGQGLEWMGWITAYSGDTVYAQKLQGRVTMTTDTSTSTAYMELRSLRSDDTAVYYCARESGQTSSALGPWGQGTLVTVSS
VL: DIQMTQSPSSVSASVGDRVTITCRASQGISRWLAWYQQKPGKAPKLLIYAASSLQSGVPSRFSGSGSGTDFTLTISSLQPEDFATYYCQQGASFPLTFGGGTKVEIK
As for B4, the binding result with Mouse GDF15 Fc (mouse) [1], with Cyno GDF15 Fc (cyno) and with Mouse GDF15 Fc (mouse) [2] was “binds” each time.

B5: Clone S Fab (Fab, V domains shown)
VH: QVQLVQSGAEVKKPGASVKVSCKASGYTFTSYGINWVRQAPGQGLEWMGWITAYSGDTNYAQKLQGRVTMTTDTSTSTAYMELRSLRSDDTAVYYCARGPGQYADVDVWGQGTMVTVSS
VL: DIQLTQSPSSVSASVGDRVTITCRASQGISPWLAWYQQKPGKAPKLLIYAASSLQSGVPSRFSGSGSGTDFTLTISSLQPEDFATYYCQQANSFPITFGGGTKVEIK
Consider B5, for which the binding entry with Mouse GDF15 Fc (mouse) [1] and with Cyno GDF15 Fc (cyno) was “binds” in each case.

B6: Clone K Fab (Fab, V domains shown)
VH: QVQLVQSGAEVKKPGASVKVSCKASGYTFTNEGISWVRQAPGQGLEWMGWISAYTADTFYAQKLQGRVTMTTDTSTSTAYMELRSLRSDDTAVYYCARTRHDTSGLRFDYWGQGTLVTVSS
VL: DIQMTQSPSSVSASVGDRVTITCRASQGIDSWLAWYQQKPGKAPKLLIYAASSLQSGVPSRFSGSGSGTDFTLTISSLQPEDFATYYCQQVHSFPITFGGGTKVEIK
Turning to B6, the binding entry with Mouse GDF15 Fc (mouse) [1] and with Cyno GDF15 Fc (cyno) was “binds” in each case.

B7: Clone E Fab (Fab, V domains shown)
VH: QVQLVQSGAEVKKPGASVKVSCKASGYTFTSYGINWVRQAPGQGLEWMGWITAYSGDTNYAQKLQGRVTMTTDTSTSTAYMELRSLRSDDTAVYYCARGPGQYADVDVWGQGTMVTVSS
VL: DIQMTQSPSSVSASVGDRVTITCRASQGISSWLAWYQQKPGKAPKLLIYAASSLQSGVPSRFSGSGSGTDFTLTISSLQPEDFATYYCQQANSFPITFGGGTKVEIK
In the case of B7, the binding result with Mouse GDF15 Fc (mouse) [1] and in the experiment with Cyno GDF15 Fc (cyno) was “binds” each time.

B8: Clone O Fab (Fab, V domains shown)
VH: QVQLVQSGAEVKKPGATVKVSCKASGYTFDSLGMSWVRQAPGQGLEWMGYISTYSGDTVYAQKLQGRVTMTTDTSTSTAYMELRSLRSDDTAVYYCARESGQQVSALDPWGQGTLVTVSS
VL: DIQMTQSPSSVSASVGDRVTITCRASQGISRWLAWYQQKPGKAPKLLIYAASSLQSGVPSRFSGSGSGTDFTLTISSLQPEDFATYYCQQGASFPLTFGGGTKVEIK
As for B8, the binding entry in the experiment with Mouse GDF15 Fc (mouse) [1] and in the experiment with Cyno GDF15 Fc (cyno) was “binds” in each case.

B9: Clone T Fab (Fab, V domains shown)
VH: QVQLVQSGAEVKKPGASVKVSCKASGYTFTSYGINWVRQAPGQGLEWMGWITAYSGDTNYAQKLQGRVTMTTDTSTSTAYMELRSLRSDDTAVYYCARGPGQYADVDVWGQGTMVTVSS
VL: DIQMTQSPSSVSASVGDRVTITCRASQGISSWLAWYQQKPGKAPKLLIYAASSLQSGVPSRFSGSGSGTDFTLTISSLQPEDFATYYCQQASQFPITFGGGTKVEIK
On to B9, for which the binding entry in the experiment with Mouse GDF15 Fc (mouse) [1] and in the experiment with Cyno GDF15 Fc (cyno) was “binds” each time.

B10: Clone J IgG (antibody, V domains shown)
VH: QVQLVQSGAEVKKPGASVKVSCKASGYTFTSYGINWVRQAPGQGLEWMGWIDAYSGSTNYAQKLQGRVTMTTDTSTSTAYMELRSLRSDDTAVYYCARGPGQYADVDVWGQGTMVTVSS
VL: DIQMTQSPSSVSASVGDRVTITCRASQGISSWLAWYQQKPGKAPKLLIYAASSLQSGVPSRFSGSGSGTDFTLTISSLQPEDFATYYCQQANSFPITFGGGTKVEIKR
Take B10: the binding entry in the experiment with GDNF is on record as “binds”.

B11: Clone P IgG (antibody, V domains shown)
VH: QVQLVQSGAEVKKPGATVKVSCKASGYTFDSYGIHWVRQAPGQGLEWMGWITAYSGDTVYAQKLQGRVTMTTDTSTSTAYMELRSLRSDDTAVYYCARESGQTSSALGPWGQGTLVTVSS
VL: DIQMTQSPSSVSASVGDRVTITCRASQGISRWLAWYQQKPGKAPKLLIYAASSLQSGVPSRFSGSGSGTDFTLTISSLQPEDFATYYCQQGASFPLTFGGGTKVEIKR
B11: in the experiment with GDNF, the binding entry was “binds”.
